Drawing on PMC10412619, this text covers binding for two substances.

Protein sequences, listed by entry. Tags and fused reporters are not part of them.
UniProt P98170: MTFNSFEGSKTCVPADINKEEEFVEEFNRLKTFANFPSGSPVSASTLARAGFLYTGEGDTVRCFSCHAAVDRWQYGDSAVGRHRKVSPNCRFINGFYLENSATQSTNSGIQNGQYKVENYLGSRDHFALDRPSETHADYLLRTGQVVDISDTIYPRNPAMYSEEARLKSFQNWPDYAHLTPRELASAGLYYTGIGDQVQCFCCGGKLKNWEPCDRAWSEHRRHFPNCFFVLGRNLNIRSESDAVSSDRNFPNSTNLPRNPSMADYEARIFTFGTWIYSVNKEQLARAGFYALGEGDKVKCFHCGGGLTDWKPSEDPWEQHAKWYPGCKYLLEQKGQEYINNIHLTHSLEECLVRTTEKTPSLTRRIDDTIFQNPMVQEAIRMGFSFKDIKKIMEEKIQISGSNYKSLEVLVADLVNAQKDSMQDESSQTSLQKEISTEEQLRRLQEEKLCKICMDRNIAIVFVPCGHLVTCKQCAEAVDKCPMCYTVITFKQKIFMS
UniProt Q06609: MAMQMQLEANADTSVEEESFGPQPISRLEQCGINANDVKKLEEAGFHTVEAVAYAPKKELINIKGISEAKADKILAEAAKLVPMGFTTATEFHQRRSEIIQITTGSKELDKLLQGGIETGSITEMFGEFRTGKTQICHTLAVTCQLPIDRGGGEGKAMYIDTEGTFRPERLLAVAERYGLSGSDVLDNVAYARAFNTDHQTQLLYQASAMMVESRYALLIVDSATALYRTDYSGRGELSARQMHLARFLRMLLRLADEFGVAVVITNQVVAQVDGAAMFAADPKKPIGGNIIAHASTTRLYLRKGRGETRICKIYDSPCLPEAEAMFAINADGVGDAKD

In assay [1] the target is T1, DNA polymerase iota (POLI) (human (endogenous in TE-1)) (UniProt Q9UNA4).
T1 sequence: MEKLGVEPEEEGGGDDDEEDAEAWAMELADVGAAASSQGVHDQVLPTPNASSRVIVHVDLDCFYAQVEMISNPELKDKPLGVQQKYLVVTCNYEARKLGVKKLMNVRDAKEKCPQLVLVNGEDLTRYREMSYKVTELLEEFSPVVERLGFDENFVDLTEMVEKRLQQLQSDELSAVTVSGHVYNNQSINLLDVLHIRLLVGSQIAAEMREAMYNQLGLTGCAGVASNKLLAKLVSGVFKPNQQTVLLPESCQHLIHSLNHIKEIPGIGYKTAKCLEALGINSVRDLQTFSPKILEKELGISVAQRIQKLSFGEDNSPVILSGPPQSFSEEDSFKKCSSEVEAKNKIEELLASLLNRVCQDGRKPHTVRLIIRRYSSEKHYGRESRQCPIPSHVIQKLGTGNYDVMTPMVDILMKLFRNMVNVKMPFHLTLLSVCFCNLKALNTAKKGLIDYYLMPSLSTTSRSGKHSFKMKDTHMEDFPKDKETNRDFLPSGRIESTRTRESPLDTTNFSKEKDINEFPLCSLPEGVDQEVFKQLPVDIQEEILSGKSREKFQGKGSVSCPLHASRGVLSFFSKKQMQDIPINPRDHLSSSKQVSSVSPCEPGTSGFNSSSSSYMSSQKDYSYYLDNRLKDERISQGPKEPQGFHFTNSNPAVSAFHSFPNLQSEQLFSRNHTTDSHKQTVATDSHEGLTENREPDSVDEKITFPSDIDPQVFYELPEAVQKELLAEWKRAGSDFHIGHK
Kind of assay: co-IP; whole cell lysate from TE-1 cells, RIPA lysis buffer, primary antibody overnight at 4 °C, protein A + G agarose.

Assay [2] concerns the target X-linked inhibitor of apoptosis (XIAP) (human (endogenous in TE-1)) (UniProt P98170). The assay is described as above.
The target is the same in assay [3]. Kind of assay: co-IP; XIAP and RAD51 complexes immunoprecipitated from POLI-expressing and POLI-deficient ESCC cells.

No constants are given. Whether binding was seen depends on the method and setting. In cells and extracts the contact can be indirect. Some entries that bind do so weakly or less than the wild type.

Consider “X-linked inhibitor of apoptosis (XIAP) (from UniProt P98170 1-497)”, for which the binding entry in assay [1] is “binds”. Regarding RAD51 (from UniProt Q06609 1-339), the binding entry in assay [2] and in assay [3] was “binds” each time.
